The supplement of paper PMC12067093, “Discovery and optimisation of a covalent ligand for TRIM25 and its application to targeted protein ubiquitination” (Chemical Science, 2025)
This is one part of the list.

Protein sequences, listed by entry. Tags and fused reporters are not part of them. Lines headed by an entry give the natural chain unless they say otherwise; changes in a name come on top.
UniProt P54920: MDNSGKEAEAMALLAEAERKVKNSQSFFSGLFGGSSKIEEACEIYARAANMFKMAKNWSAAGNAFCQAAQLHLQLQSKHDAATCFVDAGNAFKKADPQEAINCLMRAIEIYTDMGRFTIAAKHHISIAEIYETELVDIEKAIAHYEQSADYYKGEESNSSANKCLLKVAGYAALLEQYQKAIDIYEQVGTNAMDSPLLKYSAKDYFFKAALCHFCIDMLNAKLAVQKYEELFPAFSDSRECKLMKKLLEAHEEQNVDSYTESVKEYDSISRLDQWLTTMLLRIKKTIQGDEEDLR
UniProt Q96RE7: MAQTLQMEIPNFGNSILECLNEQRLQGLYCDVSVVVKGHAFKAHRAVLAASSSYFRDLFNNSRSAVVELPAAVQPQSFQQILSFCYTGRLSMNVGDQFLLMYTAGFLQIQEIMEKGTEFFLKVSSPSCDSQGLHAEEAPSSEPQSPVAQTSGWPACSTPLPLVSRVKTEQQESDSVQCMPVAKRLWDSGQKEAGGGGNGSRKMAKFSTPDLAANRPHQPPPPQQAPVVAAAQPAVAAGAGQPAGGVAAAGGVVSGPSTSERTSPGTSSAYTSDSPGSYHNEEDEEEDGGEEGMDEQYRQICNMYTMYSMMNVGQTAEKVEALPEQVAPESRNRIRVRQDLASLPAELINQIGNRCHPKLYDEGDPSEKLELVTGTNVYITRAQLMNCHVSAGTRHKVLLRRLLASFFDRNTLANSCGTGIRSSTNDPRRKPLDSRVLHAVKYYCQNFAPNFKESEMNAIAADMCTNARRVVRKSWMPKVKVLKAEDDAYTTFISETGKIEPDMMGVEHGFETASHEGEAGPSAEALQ
UniProt P49321, whole entry, looked up: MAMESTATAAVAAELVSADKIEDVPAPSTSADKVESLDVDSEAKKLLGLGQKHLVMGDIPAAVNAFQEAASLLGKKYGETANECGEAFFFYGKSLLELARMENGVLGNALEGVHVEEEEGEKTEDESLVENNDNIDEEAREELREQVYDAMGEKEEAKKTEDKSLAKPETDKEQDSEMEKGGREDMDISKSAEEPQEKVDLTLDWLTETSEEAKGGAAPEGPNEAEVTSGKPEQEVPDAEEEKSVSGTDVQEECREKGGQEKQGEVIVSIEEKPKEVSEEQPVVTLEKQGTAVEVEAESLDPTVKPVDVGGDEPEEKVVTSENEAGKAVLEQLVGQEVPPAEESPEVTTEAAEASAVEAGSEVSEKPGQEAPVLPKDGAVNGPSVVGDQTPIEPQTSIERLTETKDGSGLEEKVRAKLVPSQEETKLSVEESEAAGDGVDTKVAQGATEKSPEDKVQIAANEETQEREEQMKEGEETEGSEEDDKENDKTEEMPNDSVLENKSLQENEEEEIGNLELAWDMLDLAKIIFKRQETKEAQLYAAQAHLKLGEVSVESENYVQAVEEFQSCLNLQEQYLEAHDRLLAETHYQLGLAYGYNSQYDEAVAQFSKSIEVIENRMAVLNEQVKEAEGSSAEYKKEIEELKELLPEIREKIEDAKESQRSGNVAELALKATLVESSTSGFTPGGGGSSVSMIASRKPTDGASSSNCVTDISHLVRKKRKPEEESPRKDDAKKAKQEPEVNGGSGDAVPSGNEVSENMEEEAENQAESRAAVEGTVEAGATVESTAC
UniProt Q9UBB6: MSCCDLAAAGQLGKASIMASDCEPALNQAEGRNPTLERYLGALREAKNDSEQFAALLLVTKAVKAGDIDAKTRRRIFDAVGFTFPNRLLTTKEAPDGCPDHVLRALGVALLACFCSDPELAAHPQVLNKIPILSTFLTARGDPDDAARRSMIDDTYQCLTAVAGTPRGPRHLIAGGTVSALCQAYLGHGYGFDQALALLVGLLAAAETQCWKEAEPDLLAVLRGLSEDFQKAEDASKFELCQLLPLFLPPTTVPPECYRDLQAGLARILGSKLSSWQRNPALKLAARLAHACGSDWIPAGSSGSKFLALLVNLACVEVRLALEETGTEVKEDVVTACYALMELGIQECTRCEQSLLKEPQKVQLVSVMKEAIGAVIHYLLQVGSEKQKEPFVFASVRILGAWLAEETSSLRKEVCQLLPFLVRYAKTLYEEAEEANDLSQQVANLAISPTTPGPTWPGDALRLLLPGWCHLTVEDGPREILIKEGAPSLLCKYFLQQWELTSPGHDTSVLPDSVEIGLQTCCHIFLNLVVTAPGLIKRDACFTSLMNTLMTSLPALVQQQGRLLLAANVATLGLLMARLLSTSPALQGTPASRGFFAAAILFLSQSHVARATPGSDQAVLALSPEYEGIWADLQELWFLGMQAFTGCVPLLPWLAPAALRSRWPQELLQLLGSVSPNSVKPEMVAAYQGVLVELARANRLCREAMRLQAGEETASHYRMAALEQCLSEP
UniProt B0I1T2: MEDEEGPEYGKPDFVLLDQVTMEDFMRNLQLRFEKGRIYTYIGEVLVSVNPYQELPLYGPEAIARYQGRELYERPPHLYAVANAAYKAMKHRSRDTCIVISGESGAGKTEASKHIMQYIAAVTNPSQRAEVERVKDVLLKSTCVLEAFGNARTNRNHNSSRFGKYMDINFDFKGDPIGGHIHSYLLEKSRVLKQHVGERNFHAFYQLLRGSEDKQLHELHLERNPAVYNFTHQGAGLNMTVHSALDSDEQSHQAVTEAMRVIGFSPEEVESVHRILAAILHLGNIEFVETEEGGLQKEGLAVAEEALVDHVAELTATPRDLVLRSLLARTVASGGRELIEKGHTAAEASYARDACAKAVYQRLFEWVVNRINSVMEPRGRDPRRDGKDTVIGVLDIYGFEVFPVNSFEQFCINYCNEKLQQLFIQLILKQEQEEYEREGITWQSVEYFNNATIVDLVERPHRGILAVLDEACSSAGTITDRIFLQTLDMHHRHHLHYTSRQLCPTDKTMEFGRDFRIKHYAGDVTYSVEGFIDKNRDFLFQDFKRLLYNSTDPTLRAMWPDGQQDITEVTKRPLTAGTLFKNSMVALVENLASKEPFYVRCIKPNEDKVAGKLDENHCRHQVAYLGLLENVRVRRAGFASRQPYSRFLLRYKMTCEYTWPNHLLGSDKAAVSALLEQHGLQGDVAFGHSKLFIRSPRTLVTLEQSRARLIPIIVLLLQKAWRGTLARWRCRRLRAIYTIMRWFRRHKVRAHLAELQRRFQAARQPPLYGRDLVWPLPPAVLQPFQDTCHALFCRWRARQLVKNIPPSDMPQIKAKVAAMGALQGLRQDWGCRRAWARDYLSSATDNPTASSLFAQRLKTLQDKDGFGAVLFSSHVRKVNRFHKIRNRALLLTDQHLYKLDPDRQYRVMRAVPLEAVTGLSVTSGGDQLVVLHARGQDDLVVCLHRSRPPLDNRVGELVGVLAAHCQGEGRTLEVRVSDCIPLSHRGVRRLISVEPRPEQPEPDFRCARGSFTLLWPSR
UniProt P42695: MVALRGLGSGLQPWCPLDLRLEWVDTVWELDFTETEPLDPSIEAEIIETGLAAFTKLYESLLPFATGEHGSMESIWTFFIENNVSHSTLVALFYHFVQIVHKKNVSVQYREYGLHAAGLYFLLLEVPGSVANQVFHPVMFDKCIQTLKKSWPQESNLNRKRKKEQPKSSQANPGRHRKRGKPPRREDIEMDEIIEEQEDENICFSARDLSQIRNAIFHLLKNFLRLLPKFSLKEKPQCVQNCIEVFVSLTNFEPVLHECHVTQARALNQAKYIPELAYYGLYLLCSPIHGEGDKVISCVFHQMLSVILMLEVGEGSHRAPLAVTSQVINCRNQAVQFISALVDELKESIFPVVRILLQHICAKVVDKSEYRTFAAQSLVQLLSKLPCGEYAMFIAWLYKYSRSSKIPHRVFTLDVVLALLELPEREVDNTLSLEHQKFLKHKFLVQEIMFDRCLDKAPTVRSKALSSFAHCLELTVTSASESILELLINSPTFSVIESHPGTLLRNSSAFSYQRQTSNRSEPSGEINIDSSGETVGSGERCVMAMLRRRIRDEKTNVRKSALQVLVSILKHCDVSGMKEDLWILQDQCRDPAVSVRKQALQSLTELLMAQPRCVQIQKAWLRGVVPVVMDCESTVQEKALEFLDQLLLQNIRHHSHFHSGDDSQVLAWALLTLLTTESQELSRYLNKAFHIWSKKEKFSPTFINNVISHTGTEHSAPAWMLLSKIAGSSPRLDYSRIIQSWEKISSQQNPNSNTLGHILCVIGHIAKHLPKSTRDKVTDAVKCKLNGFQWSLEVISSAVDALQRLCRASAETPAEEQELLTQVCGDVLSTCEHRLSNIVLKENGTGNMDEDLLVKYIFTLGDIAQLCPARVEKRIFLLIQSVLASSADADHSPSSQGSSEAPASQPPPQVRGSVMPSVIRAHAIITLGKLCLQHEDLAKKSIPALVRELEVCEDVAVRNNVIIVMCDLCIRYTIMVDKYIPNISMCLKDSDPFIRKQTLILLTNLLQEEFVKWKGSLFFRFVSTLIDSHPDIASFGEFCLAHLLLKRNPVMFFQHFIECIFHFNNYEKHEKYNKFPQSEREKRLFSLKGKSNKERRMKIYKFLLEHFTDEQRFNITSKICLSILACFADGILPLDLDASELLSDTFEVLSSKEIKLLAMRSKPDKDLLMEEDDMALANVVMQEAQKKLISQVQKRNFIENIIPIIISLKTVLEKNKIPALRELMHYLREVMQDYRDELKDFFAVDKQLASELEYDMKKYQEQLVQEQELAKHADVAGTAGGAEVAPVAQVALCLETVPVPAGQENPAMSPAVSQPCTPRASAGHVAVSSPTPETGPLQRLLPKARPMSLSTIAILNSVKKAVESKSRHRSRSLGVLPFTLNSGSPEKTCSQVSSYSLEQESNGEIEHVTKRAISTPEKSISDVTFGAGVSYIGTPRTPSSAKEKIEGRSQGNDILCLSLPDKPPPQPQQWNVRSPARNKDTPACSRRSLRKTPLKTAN
UniProt Q86XI2: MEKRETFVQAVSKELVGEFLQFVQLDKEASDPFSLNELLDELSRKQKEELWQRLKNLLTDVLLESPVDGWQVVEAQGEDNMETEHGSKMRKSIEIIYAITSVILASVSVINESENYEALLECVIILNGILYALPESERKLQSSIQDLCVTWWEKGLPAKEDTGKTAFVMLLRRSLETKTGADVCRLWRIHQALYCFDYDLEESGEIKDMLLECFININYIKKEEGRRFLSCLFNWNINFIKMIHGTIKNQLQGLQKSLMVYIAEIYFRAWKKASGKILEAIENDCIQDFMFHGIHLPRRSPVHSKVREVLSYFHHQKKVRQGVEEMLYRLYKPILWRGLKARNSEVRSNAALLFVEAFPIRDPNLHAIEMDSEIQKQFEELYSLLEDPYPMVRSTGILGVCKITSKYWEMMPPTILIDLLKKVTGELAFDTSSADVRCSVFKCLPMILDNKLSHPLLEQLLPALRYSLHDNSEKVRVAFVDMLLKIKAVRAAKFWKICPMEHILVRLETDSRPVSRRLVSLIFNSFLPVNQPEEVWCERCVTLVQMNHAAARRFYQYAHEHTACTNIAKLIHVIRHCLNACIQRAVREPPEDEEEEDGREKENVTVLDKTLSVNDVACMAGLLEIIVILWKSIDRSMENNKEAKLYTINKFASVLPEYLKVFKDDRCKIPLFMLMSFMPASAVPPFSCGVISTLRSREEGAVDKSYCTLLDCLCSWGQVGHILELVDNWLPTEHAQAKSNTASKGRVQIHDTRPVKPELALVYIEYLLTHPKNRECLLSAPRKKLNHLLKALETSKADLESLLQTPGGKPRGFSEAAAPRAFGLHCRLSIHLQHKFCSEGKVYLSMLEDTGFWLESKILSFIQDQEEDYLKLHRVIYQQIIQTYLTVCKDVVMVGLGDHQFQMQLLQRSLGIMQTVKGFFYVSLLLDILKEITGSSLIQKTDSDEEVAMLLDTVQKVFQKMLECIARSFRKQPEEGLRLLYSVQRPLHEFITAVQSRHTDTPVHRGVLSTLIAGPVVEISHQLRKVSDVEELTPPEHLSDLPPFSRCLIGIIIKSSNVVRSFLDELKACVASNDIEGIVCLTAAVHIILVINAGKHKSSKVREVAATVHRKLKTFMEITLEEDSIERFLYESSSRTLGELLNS
UniProt Q6XQN6: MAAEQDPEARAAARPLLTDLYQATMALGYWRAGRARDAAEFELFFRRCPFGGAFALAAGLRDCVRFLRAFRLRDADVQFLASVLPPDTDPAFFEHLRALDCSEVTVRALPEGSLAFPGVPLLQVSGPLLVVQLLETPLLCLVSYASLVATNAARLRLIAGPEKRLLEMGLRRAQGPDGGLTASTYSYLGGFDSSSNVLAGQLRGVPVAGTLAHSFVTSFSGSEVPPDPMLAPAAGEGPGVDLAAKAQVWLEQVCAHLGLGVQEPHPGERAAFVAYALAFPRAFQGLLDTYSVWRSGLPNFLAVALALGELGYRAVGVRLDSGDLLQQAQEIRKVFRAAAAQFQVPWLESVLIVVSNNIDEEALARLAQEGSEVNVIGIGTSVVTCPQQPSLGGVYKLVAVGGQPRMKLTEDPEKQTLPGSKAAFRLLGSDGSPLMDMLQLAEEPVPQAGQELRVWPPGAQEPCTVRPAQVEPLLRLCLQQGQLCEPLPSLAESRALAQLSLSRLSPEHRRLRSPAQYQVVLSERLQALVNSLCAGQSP

These targets were tested with Cc1cc(ccc1-c1ccccc1)C(=O)N1CCCN(CC1)C(=O)CCl [compound 10] (assay: probe-labelled cysteine peptide fold change vs DMSO (competition) (log2 fold change); higher = less target engagement (more negative = stronger competition)). Details: 50 µM; THP-1; incubation time: 4 h.
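Further: competitive profiling in live THP-1 cells: cysteine peptides tagged with an iodoacetamide desthiobiotin (IA-DTB) probe, intensity after compound treatment relative to DMSO-treated cells.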

Target | probe-labelled cysteine peptide fold change
NAPA_P54920_66_NWSAAGNAFCQAAQLHLQLQSK (UniProt P54920) | -0.00462
NAT1_P18440_223+233_SFCSLQTPDGVHCLVGFTLTHR (UniProt P18440) | 0.168
NARS_O43776_452_CPEDSR (UniProt O43776) | -0.0731
MYO6_Q9UM54_362_VVAGVLHLGNIDFEEAGSTSGGCNLK (UniProt Q9UM54) | 0.0127
NCAM1_P13591_287_NDEAEYICIAENK (UniProt P13591) | 0.289
NCF2_P19878_499_VNEEWLEGECK (UniProt P19878) | -0.0552
MYO1C_O00159_802_CPENAFFLDHVR (UniProt O00159) | 0.0209
NACC1_Q96RE7_178_TEQQESDSVQCMPVAK (UniProt Q96RE7) | -0.0636
NCAPH_Q15003_114_FTNTQITEHYSTCIK (UniProt Q15003) | -0.273
NASP_P49321_254_SVSGTDVQEECR (UniProt P49321) | 0.0137
NARS_O43776_438_LMTDTINEPILLCR (UniProt O43776) | -0.0301
NCDN_Q9UBB6_469_LLLPGWCHLTVEDGPR (UniProt Q9UBB6) | -0.0266
MYO18A_Q92614_1199_NLTLFQAACR (UniProt Q92614) | 0.0241
NAA15_Q9BXJ9_817_NLQTCMEVLEALYDGSLGDCK (UniProt Q9BXJ9) | -0.0973
NASP_P49321_84_YGETANECGEAFFFYGK (UniProt P49321) | 0.457
MYO1G_B0I1T2_97_SRDTCIVISGESGAGK (UniProt B0I1T2) | -0.0978
NACC1_Q96RE7_464_ESEMNAIAADMCTNAR (UniProt Q96RE7) | -0.0747
MYO1G_B0I1T2_97_DTCIVISGESGAGK (UniProt B0I1T2) | 0.0953
NAA30_Q147X3_195_LLSSSLTADCSLR (UniProt Q147X3) | -0.15

Fetched one by one from the entries so far, two records:
Target | probe-labelled cysteine peptide fold change
NARS_O43776_438_LMTDTINEPILLCR (UniProt O43776) | -0.0301
NCDN_Q9UBB6_469_LLLPGWCHLTVEDGPR (UniProt Q9UBB6) | -0.0266

Carrying on:

Target | probe-labelled cysteine peptide fold change
NAA25_Q14CX7_365_KFGDKPCCFTDLK (UniProt Q14CX7) | -0.333
MYO9B_Q13459_1665_ALLCSVCK (UniProt Q13459) | 0.0316
NADK2_Q4G0N4_311_SSGLNLCTGTGSK (UniProt Q4G0N4) | -0.192
NARS_O43776_342_RHLAEYTHVEAECPFLTFDDLLNR (UniProt O43776) | 0.182
NAA16_Q6N069_465_EAEEMCSK (UniProt Q6N069) | -0.0615
NCAPD3_P42695_760_ISSQQNPNSNTLGHILCVIGHIAK (UniProt P42695) | -0.0655
NCAPD3_P42695_1484_DTPACSR (UniProt P42695) | -0.372
NCAPG2_Q86XI2_498_ICPMEHILVR (UniProt Q86XI2) | 0.0269
NAPRT_Q6XQN6_48_CPFGGAFALAAGLRDCVR (UniProt Q6XQN6) | 0.0112
NCAPG2_Q86XI2_401_STGILGVCK (UniProt Q86XI2) | -0.123
NCKAP1L_P55160_1032_DGYNNNIHCLTK (UniProt P55160) | 0.171
NAPA_P54920_42_IEEACEIYAR (UniProt P54920) | 0.00163
NAGA_P17050_343_ASALVFFSCR (UniProt P17050) | 0.1
NAT10_Q9H0A0_517_DTLFCYHK (UniProt Q9H0A0) | 0.38
MYO1F_O00160_807_GQVCEVLKK (UniProt O00160) | -0.287
MYO1G_B0I1T2_965_VGELVGVLAAHCQGEGR (UniProt B0I1T2) | -0.255
NAPRT_Q6XQN6_463_VWPPGAQEPCTVRPAQVEPLLR (UniProt Q6XQN6) | -0.0643
NCAM2_O15394_42_FFTCTAIGEPESIDWYNPQGEK (UniProt O15394) | 0.13
MYSM1_Q5VVJ2_564_SSFDPFQLIPCNFFSEEK (UniProt Q5VVJ2) | 0.101
